This is a selection; strong and weak results do not stand in their true shares. The calls were merged from several studies; some rest on single wells. The list shows a part of the results.
What was measured:
Settings in all cases: stereoisomer not certain
OR52K2 (Homo sapiens) = target: T1, OR52K2 (Homo sapiens) (UniProt Q8NGK3)
T1 sequence (whole entry): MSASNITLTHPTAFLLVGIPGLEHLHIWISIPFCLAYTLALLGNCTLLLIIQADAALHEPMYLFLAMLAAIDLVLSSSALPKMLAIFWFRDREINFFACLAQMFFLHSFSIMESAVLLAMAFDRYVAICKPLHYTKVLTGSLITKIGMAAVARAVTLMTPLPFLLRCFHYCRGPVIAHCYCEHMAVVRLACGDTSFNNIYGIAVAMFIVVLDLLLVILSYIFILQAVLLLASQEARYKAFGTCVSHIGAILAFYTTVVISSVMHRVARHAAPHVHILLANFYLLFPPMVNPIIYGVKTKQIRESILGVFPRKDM
How it was run: (§1)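 Each receptor–molecule pair is labelled responsive or non-responsive (inactive) according to whether the original authors judged the measured signal statistically different from baseline. The data were taken from the main text and supplementary material of published papers and checked for typos and inconsistencies. Assay methods differed by source, with transient luciferase assays in mammalian cell lines being common.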

OR52N5 (Homo sapiens) = target: T2, OR52N5 (Homo sapiens) (UniProt Q8NH56)
T2 sequence (whole entry): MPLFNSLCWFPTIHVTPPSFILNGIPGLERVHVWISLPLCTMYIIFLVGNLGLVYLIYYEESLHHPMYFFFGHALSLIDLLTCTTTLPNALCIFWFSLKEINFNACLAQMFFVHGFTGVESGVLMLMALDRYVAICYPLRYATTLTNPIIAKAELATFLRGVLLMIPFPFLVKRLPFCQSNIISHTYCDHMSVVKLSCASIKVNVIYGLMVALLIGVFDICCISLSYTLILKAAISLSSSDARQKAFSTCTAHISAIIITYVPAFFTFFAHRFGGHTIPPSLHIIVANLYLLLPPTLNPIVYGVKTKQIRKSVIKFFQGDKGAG
How it was run: as §1

OR56A1 (Homo sapiens) = target: T3, OR56A1 (Homo sapiens) (UniProt Q8NGH5)
T3 sequence (whole entry): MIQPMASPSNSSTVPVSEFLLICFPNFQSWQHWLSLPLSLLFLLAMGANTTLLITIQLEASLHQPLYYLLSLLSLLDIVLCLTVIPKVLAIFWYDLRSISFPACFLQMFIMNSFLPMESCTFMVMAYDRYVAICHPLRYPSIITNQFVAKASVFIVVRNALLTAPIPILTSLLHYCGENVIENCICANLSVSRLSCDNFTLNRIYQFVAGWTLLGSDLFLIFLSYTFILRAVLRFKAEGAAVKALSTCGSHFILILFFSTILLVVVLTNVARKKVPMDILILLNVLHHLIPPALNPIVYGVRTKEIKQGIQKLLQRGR
How it was run: as §1

OR56A4 (Homo sapiens) = target: T4, OR56A4 (Homo sapiens) (UniProt Q8NGH8)
T4 sequence (whole entry): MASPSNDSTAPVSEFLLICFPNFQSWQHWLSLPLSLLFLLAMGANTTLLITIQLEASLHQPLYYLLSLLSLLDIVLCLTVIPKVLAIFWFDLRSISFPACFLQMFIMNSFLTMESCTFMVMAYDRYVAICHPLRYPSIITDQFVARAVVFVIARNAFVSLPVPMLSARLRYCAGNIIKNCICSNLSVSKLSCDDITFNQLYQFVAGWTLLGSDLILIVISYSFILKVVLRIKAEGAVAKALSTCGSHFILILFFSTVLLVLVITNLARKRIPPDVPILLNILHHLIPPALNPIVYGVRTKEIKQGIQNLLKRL
How it was run: as §1

OR56A5 (Homo sapiens) = target: T5, OR56A5 (Homo sapiens) (UniProt P0C7T3)
T5 sequence (whole entry): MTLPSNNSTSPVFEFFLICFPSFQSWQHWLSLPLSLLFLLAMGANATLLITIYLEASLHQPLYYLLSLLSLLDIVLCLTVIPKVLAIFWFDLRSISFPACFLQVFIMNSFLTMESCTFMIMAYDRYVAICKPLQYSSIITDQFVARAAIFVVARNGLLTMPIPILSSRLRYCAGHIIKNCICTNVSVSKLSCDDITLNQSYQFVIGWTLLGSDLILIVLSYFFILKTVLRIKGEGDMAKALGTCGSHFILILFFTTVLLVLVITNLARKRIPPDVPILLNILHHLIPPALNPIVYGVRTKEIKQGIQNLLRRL
How it was run: as §1

OR5A1 [1] = system: T6, OR5A1
T6 sequence (whole entry): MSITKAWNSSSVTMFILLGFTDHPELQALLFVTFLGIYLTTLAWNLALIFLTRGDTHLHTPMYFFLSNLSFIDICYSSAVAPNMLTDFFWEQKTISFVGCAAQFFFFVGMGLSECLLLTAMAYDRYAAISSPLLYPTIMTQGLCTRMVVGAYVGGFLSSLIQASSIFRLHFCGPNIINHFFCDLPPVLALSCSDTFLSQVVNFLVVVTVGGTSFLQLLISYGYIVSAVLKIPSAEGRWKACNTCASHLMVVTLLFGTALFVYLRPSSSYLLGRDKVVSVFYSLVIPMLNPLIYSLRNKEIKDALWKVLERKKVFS
How it was run: as §1

OR5A1 [2] = system: T7, OR5A1; remark: listed apart in the source
T7 sequence (whole entry): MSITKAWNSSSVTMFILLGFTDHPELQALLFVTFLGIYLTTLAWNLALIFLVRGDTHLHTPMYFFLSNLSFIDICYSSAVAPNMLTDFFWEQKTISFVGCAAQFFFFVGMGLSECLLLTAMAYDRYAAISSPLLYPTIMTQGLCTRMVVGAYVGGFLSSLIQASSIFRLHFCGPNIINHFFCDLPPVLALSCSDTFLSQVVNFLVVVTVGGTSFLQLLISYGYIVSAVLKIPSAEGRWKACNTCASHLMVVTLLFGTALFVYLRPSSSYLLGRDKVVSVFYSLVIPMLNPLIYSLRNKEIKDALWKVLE
How it was run: as §1

OR5A1 [3] = system: T8, OR5A1; remark: listed apart in the source
T8 sequence (whole entry): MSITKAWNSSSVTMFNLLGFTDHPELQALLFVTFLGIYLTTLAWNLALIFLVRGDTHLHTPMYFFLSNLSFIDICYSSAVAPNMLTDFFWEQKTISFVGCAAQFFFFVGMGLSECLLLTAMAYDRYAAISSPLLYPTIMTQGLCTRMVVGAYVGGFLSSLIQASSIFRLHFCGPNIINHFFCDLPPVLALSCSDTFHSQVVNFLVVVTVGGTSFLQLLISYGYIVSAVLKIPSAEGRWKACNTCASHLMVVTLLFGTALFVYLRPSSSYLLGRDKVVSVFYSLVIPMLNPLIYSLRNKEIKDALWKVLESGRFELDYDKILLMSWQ
How it was run: as §1

OR5A2 (Homo sapiens) = target: T9, OR5A2 (Homo sapiens) (UniProt Q8NGI9)
T9 sequence (whole entry): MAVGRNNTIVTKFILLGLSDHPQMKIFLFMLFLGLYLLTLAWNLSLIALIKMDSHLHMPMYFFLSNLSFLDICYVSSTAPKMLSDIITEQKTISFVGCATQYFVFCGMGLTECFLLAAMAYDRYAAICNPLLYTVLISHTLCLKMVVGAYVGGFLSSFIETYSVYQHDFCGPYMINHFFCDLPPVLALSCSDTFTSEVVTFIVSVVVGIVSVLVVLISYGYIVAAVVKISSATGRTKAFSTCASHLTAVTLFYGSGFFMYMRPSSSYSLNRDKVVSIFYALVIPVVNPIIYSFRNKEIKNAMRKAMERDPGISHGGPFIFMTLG
How it was run: as §1

OR5AK2 (Homo sapiens) = target: T10, OR5AK2 (Homo sapiens) (UniProt Q8NH90)
T10 sequence (whole entry): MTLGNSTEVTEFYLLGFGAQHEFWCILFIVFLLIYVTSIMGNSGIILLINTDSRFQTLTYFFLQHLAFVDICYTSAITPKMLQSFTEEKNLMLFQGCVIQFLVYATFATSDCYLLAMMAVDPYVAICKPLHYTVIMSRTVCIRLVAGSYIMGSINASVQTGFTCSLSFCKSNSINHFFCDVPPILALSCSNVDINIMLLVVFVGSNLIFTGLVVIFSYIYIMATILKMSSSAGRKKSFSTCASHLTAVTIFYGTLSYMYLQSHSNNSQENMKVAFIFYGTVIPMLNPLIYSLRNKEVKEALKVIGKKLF
How it was run: as §1

Measured: odorant receptor agonist call;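 note: active if original authors judged signal statistically different from baseline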

CCC(C)=O
inactive: OR52K2 (Homo sapiens) | OR52N5 (Homo sapiens) | OR56A1 (Homo sapiens) | OR56A4 (Homo sapiens) | OR56A5 (Homo sapiens) | OR5A1 [1] | OR5A1 [2] | OR5A1 [3] | OR5A2 (Homo sapiens) | OR5AK2 (Homo sapiens)

— the M2OR odorant receptor database
